Measurements as given in patent US10941157B2, “Pesticidal compositions and uses thereof” (Gilead Apollo, LLC, priority 2015, dated 2021).
The name of at least one read-out is uncertain.

Legend:
Format in all cases: cell-based
Conditions in all cases: ≥90% growth inhibition; 48 hours; vs 2% DMSO control
Botrtyis cinerea (Bc) = test: In vitro pathogen growth inhibition assay, Bc
Description: (§1) A growth inhibition assay was conducted to determine the ability of compounds to control the growth of fungal pathogens, such as Botrtyis cinerea (Bc), Collectotrichum graminicola (Cg), Diplodia maydis (Dm), Fusarium moniliforme (Fm), Fusarium virguliforme (Fv), Phytophthora capsici (Pc), Rhizoctonia solani (Rs), and Septoria tritici (St). The compounds listed in Table 1 were each dissolved in DMSO at 2.5 mg/ml to produce compound stock solutions (“stocks”). […] Negative controls on each plate included 2% DMSO, water, and a blank (media+2% DMSO). Fungal spores were isolated from previously sub-cultured plates of Botrtyis cinerea (Bc), Collectotrichum graminicola (Cg), Diplodia maydis (Dm), Fusarium moniliforme (Fm), Fusarium virguliforme (Fv), Phytophthora capsici (Pc), and Septoria tritici (St). The isolated spores were diluted to individual concentrations with a 17% V8 liquid media. For Rhizoctonia solani (Rs), 1.5 mm mycelial plugs were used in place of spores and ¼ Potato Dextrose Broth (PDB) was used for dilution. The spore concentrations and plug sizes were based on growth curves generated at 48 hours for each pathogen. In a second 96-well plate, the spores or mycelial plugs, media, diluted compound solutions, and controls were combined. Once the compound was added, a true final concentration of compound in each well was measured by an OD600 reading, which adjusted for any compound precipitation that might have occurred in the well. Plate readings were repeated at both 24 and 48 hours. The blank negative control was used as a background subtraction. Additional visual ratings were performed at both 24 and 48 hours for checking on precipitation and confirming efficacy. […] Both tables list the concentration of each compound that was sufficient to ≥90% inhibition of growth for each of the fungal pathogens listed above. In addition, some of compounds were tested in a yeast growth inhibition assay for Saccharomyces cerevisiae (Sc). Table 2 lists the concentration of the tested compound that was sufficient to ≥75% inhibition of Saccharomyces cerevisiae (Sc).

[1] = tested on: Collectotrichum graminicola (Cg); test: In vitro pathogen growth inhibition assay, Cg
Description: as §1

Diplodia maydis (Dm) = test: In vitro pathogen growth inhibition assay, Dm
Description: as §1

[2] = tested on: Phytophthora capsici (Pc); test: In vitro pathogen growth inhibition assay, Pc
Description: as §1

[3] = tested on: Fusarium moniliforme (Fm); test: In vitro pathogen growth inhibition assay, Fm
Description: (§2) A growth inhibition assay was conducted to determine the ability of compounds to control the growth of fungal pathogens, such as Botrtyis cinerea (Bc), Collectotrichum graminicola (Cg), Diplodia maydis (Dm), Fusarium moniliforme (Fm), Fusarium virguliforme (Fv), Phytophthora capsici (Pc), Rhizoctonia solani (Rs), and Septoria tritici (St). The compounds listed in Table 1 were each dissolved in DMSO at 2.5 mg/ml to produce compound stock solutions (“stocks”). […] Negative controls on each plate included 2% DMSO, water, and a blank (media+2% DMSO). Fungal spores were isolated from previously sub-cultured plates of Botrtyis cinerea (Bc), Collectotrichum graminicola (Cg), Diplodia maydis (Dm), Fusarium moniliforme (Fm), Fusarium virguliforme (Fv), Phytophthora capsici (Pc), and Septoria tritici (St). The isolated spores were diluted to individual concentrations with a 17% V8 liquid media. For Rhizoctonia solani (Rs), 1.5 mm mycelial plugs were used in place of spores and ¼ Potato Dextrose Broth (PDB) was used for dilution. The spore concentrations and plug sizes were based on growth curves generated at 48 hours for each pathogen. […] Once the compound was added, a true final concentration of compound in each well was measured by an OD600 reading, which adjusted for any compound precipitation that might have occurred in the well. Plate readings were repeated at both 24 and 48 hours. […]

[4] = tested on: Fusarium virguliforme (Fv); test: In vitro pathogen growth inhibition assay, Fv
Description: as §2

| Structure (SMILES) | Compound Concentration (ppm) sufficient for ≥90% inhibition of Bc (Botrtyis cinerea (Bc)) [ppm] | Compound Concentration (ppm) sufficient for ≥90% inhibition of Cg [1] [ppm] | Compound Concentration (ppm) sufficient for ≥90% inhibition of Dm (Diplodia maydis (Dm)) [ppm] | Compound Concentration (ppm) sufficient for ≥90% inhibition of Pc [2] [ppm] | Compound Concentration (ppm) sufficient for ≥90% inhibition of Fm [3] [ppm] | Compound Concentration (ppm) sufficient for ≥90% inhibition of Fv [4] [ppm] |
| --- | --- | --- | --- | --- | --- | --- |
| CCOC(=O)c1sc2c(c1C)c(=O)n(C(C)(C)C(=O)NC(C)C)c(=O)n2C[C@H](OCCC#N)c1cc(F)ccc1OC [Compound I-181, (R)-ethyl-1-(2-(2-cyanoethoxy)-2-(5-fluoro-2-methoxyphenyl)ethyl)-3-(1-(isopropylamino)-2-methyl-1-oxopropan-2-yl)-5-methyl-2,4-dioxo-1,2,3,4-tetrahydrothieno[2,3-d]pyrimidine-6-carboxylate] | 0.4 | 0.08 | ≥0.08 | 10.0 | – | – |
| CCOC(=O)c1sc2c(c1C)c(=O)n(C(C)(C)C(=O)NC(C)C)c(=O)n2C[C@H](OCCC#N)c1cc(F)ccc1OC [Compound I-300] | 2 | 2 | 50 | >50 | 0.08 | 0.4 |
| CCOC(=O)c1sc2c(c1C)c(=O)n([C@H](C)C(=O)NC(C)C)c(=O)n2C[C@H](OCCC#N)c1cc(F)ccc1OC [Compound I-330] | 2 | 10 | 10 | >50 | 0.08 | 0.4 |
| CCOC(=O)c1sc2c(c1C)c(=O)n([C@H](C)C(=O)NC(C)C)c(=O)n2C[C@H](OCCC#N)c1cc(F)ccc1OC [Compound I-220, (R)-ethyl-1-(2-(2-cyanoethoxy)-2-(5-fluoro-2-methoxyphenyl)ethyl)-3-((R)-1-(isopropylamino)-1-oxopropan-2-yl)-5-methyl-2,4-dioxo-1,2,3,4-tetrahydrothieno[2,3-d]pyrimidine-6-carboxylate] | 0.4 | 0.4 | 0.4 | ≥10 | – | – |
